{"source": "the supplement of paper PMC10735217", "test_system": "HEK293A TEAD-LUC reporter", "experiment": "TEAD-luciferase reporter activity (YAP activation), robust Z score vs plate; higher = stronger YAP/TEAD activation", "details": "24 h", "note": "Where a name gives a salt, the structure may show the parent alone. Some of the results follow. Repeats in this data set agree poorly, so a single value says little.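 Human kidney-derived cells stably carry a construct in which eight TEAD-binding elements drive luciferase, measured by luminescence in a drug-repurposing library screen. A hit is any compound whose signal exceeds the plate mean by more than five robust Z scores.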", "data": [{"smiles": "CC1=C(C(=O)O)N2C(=O)[C@@H](NC(=O)[C@H](N)c3ccc4ccccc4c3)[C@H]2SC1", "values": [{"measurement": "TEAD-luciferase reporter activity", "setting": "compound concentration: 200 nM", "value": "inactive: -0.453"}, {"measurement": "TEAD-luciferase reporter activity", "setting": "compound concentration: 2 uM", "value": "inactive: 0.517"}, {"measurement": "TEAD-luciferase reporter activity", "setting": "compound concentration: 10 uM", "value": "inactive: 2.09"}]}, {"smiles": "COc1cc(F)ccc1-c1ncnc(Nc2cccc(CS(C)(=N)=O)c2)n1", "note": "(stereo unspecified)", "values": [{"measurement": "TEAD-luciferase reporter activity", "setting": "compound concentration: 200 nM", "value": "inactive: -1.33"}, {"measurement": "TEAD-luciferase reporter activity", "setting": "compound concentration: 2 uM", "value": "active: 9.43"}, {"measurement": "TEAD-luciferase reporter activity", "setting": "compound concentration: 10 uM", "value": "inactive: 1.29"}]}, {"smiles": "C[C@@H](O)[C@H]1C(=O)N2C(C(=O)OCOC(=O)C(C)(C)C)=C(SC3CN(C4=NCCS4)C3)[C@H](C)[C@H]12", "note": "[tebipenem pivoxil]", "values": [{"measurement": "TEAD-luciferase reporter activity", "setting": "compound concentration: 200 nM", "value": "inactive: -0.26"}, {"measurement": "TEAD-luciferase reporter activity", "setting": "compound concentration: 2 uM", "value": "inactive: -0.233"}, {"measurement": "TEAD-luciferase reporter activity", "setting": "compound concentration: 10 uM", "value": "inactive: -1.99"}]}, {"smiles": "C=CCN1CCCC1CNC(=O)c1cc2nn[nH]c2cc1OC", "note": "(stereo unspecified) [alizapride]", "values": [{"measurement": "TEAD-luciferase reporter activity", "setting": "compound concentration: 200 nM", "value": "inactive: -0.747"}, {"measurement": "TEAD-luciferase reporter activity", "setting": "compound concentration: 2 uM", "value": "inactive: -1.71"}, {"measurement": "TEAD-luciferase reporter activity", "setting": "compound concentration: 10 uM", "value": "inactive: 0.442"}]}, {"smiles": "CN1C(C)(C)CC(OC(=O)CCCCCCCCC(=O)OC2CC(C)(C)N(C)C(C)(C)C2)CC1(C)C", "values": [{"measurement": "TEAD-luciferase reporter activity", "setting": "compound concentration: 200 nM", "value": "inactive: -0.251"}, {"measurement": "TEAD-luciferase reporter activity", "setting": "compound concentration: 2 uM", "value": "inactive: -0.899"}, {"measurement": "TEAD-luciferase reporter activity", "setting": "compound concentration: 10 uM", "value": "inactive: -1.22"}]}, {"smiles": "O=C1NCCN1c1ncc([N+](=O)[O-])s1", "values": [{"measurement": "TEAD-luciferase reporter activity", "setting": "compound concentration: 200 nM", "value": "inactive: -0.863"}, {"measurement": "TEAD-luciferase reporter activity", "setting": "compound concentration: 2 uM", "value": "inactive: -1.3"}, {"measurement": "TEAD-luciferase reporter activity", "setting": "compound concentration: 10 uM", "value": "inactive: -1.91"}]}, {"smiles": "COCc1c(-c2cc3cc(C)cc(OC)c3s2)c2c(N)ncnn2c1CN1CCNC(=O)C1", "note": "[Rogaratinib]", "values": [{"measurement": "TEAD-luciferase reporter activity", "setting": "compound concentration: 200 nM", "value": "inactive: -0.984"}, {"measurement": "TEAD-luciferase reporter activity", "setting": "compound concentration: 2 uM", "value": "inactive: -1.15"}, {"measurement": "TEAD-luciferase reporter activity", "setting": "compound concentration: 10 uM", "value": "inactive: -0.475"}]}, {"smiles": "CC(C)Cc1ccc(-c2nc(-c3ccc(CN4CC(C(=O)O)C4)cc3)no2)cc1", "values": [{"measurement": "TEAD-luciferase reporter activity", "setting": "compound concentration: 200 nM", "value": "inactive: -0.913"}, {"measurement": "TEAD-luciferase reporter activity", "setting": "compound concentration: 2 uM", "value": "inactive: -1.88"}, {"measurement": "TEAD-luciferase reporter activity", "setting": "compound concentration: 10 uM", "value": "inactive: 2.37"}]}, {"smiles": "OC[C@H]1O[C@@H](n2cnc3c(NC4CCCC4)ncnc32)[C@H](O)[C@@H]1O", "values": [{"measurement": "TEAD-luciferase reporter activity", "setting": "compound concentration: 200 nM", "value": "inactive: -1.35"}, {"measurement": "TEAD-luciferase reporter activity", "setting": "compound concentration: 2 uM", "value": "inactive: 0.629"}, {"measurement": "TEAD-luciferase reporter activity", "setting": "compound concentration: 10 uM", "value": "inactive: 0.114"}]}, {"smiles": "N[C@H](Cc1nc2cc(Cl)ccc2n1CP(=O)(O)O)C(=O)O", "values": [{"measurement": "TEAD-luciferase reporter activity", "setting": "compound concentration: 200 nM", "value": "inactive: -1.61"}, {"measurement": "TEAD-luciferase reporter activity", "setting": "compound concentration: 2 uM", "value": "inactive: -1.47"}, {"measurement": "TEAD-luciferase reporter activity", "setting": "compound concentration: 10 uM", "value": "inactive: 0.652"}]}, {"smiles": "CN(C)CCN1C(=O)c2cccc3cc(N)cc(c23)C1=O", "note": "[amonafide dihydrochloride]", "values": [{"measurement": "TEAD-luciferase reporter activity", "setting": "compound concentration: 200 nM", "value": "inactive: 0.597"}, {"measurement": "TEAD-luciferase reporter activity", "setting": "compound concentration: 2 uM", "value": "inactive: -1.76"}, {"measurement": "TEAD-luciferase reporter activity", "setting": "compound concentration: 10 uM", "value": "inactive: -0.504"}]}, {"smiles": "Clc1ccc2ccc(/C=C/c3cccc(Cn4ccc5cccc(CCc6nnn[nH]6)c54)c3)nc2c1", "values": [{"measurement": "TEAD-luciferase reporter activity", "setting": "compound concentration: 200 nM", "value": "inactive: 0.546"}, {"measurement": "TEAD-luciferase reporter activity", "setting": "compound concentration: 2 uM", "value": "inactive: 0.253"}, {"measurement": "TEAD-luciferase reporter activity", "setting": "compound concentration: 10 uM", "value": "inactive: 2.88"}]}, {"smiles": "Cn1c(=O)c2c(nc(NCC3CCCO3)n2Cc2cccc(Br)c2)n(C)c1=O", "note": "(stereo unspecified)", "values": [{"measurement": "TEAD-luciferase reporter activity", "setting": "compound concentration: 200 nM", "value": "inactive: -0.557"}, {"measurement": "TEAD-luciferase reporter activity", "setting": "compound concentration: 2 uM", "value": "inactive: -1.15"}, {"measurement": "TEAD-luciferase reporter activity", "setting": "compound concentration: 10 uM", "value": "inactive: -1.93"}]}, {"smiles": "CCOC(=O)Cc1cc(Cl)c(Oc2ccc(C(=O)NC(C)(C)C)cc2NS(=O)(=O)c2ccc(Cl)cc2)cc1F", "values": [{"measurement": "TEAD-luciferase reporter activity", "setting": "compound concentration: 200 nM", "value": "inactive: -0.296"}, {"measurement": "TEAD-luciferase reporter activity", "setting": "compound concentration: 2 uM", "value": "inactive: -0.473"}, {"measurement": "TEAD-luciferase reporter activity", "setting": "compound concentration: 10 uM", "value": "inactive: -1.57"}]}, {"smiles": "CCN(CCCOc1ccc2c(Nc3cc(CC(=O)Nc4cccc(F)c4)[nH]n3)ncnc2c1)CCOP(=O)(O)O", "values": [{"measurement": "TEAD-luciferase reporter activity", "setting": "compound concentration: 200 nM", "value": "inactive: -1.98"}, {"measurement": "TEAD-luciferase reporter activity", "setting": "compound concentration: 2 uM", "value": "inactive: -0.794"}, {"measurement": "TEAD-luciferase reporter activity", "setting": "compound concentration: 10 uM", "value": "inactive: -1.12"}]}, {"smiles": "O=C1O[C@H]([C@@H]2COC(c3ccccc3)O2)C(O)=C1O", "note": "(stereo partly specified) [zilascorb]", "values": [{"measurement": "TEAD-luciferase reporter activity", "setting": "compound concentration: 200 nM", "value": "inactive: 0.634"}, {"measurement": "TEAD-luciferase reporter activity", "setting": "compound concentration: 2 uM", "value": "inactive: 0.908"}, {"measurement": "TEAD-luciferase reporter activity", "setting": "compound concentration: 10 uM", "value": "inactive: 0.923"}]}, {"smiles": "CC1(c2ccccc2)NCCc2ccccc21", "note": "(stereo unspecified)", "values": [{"measurement": "TEAD-luciferase reporter activity", "setting": "compound concentration: 200 nM", "value": "inactive: 0.173"}, {"measurement": "TEAD-luciferase reporter activity", "setting": "compound concentration: 2 uM", "value": "inactive: -2.51"}, {"measurement": "TEAD-luciferase reporter activity", "setting": "compound concentration: 10 uM", "value": "inactive: 3.69"}]}, {"smiles": "CN(C)Cc1ccccc1Sc1cccc(O)c1", "note": "[Moxifetin hydrogen maleate]", "values": [{"measurement": "TEAD-luciferase reporter activity", "setting": "compound concentration: 200 nM", "value": "inactive: 4.95"}, {"measurement": "TEAD-luciferase reporter activity", "setting": "compound concentration: 2 uM", "value": "inactive: -0.127"}, {"measurement": "TEAD-luciferase reporter activity", "setting": "compound concentration: 10 uM", "value": "inactive: -1.81"}]}, {"smiles": "Cn1nc(C(=O)NCCN2CCOCC2)cc1-c1cnc2ccccc2c1", "values": [{"measurement": "TEAD-luciferase reporter activity", "setting": "compound concentration: 200 nM", "value": "inactive: 1.27"}, {"measurement": "TEAD-luciferase reporter activity", "setting": "compound concentration: 2 uM", "value": "inactive: -0.611"}, {"measurement": "TEAD-luciferase reporter activity", "setting": "compound concentration: 10 uM", "value": "inactive: -0.991"}]}, {"smiles": "C[C@@H](NC(=O)c1ccc(Br)cc1NS(=O)(=O)c1cccc2nccnc12)c1ccc(F)cc1F", "values": [{"measurement": "TEAD-luciferase reporter activity", "setting": "compound concentration: 200 nM", "value": "inactive: 3.12"}, {"measurement": "TEAD-luciferase reporter activity", "setting": "compound concentration: 2 uM", "value": "inactive: -0.533"}, {"measurement": "TEAD-luciferase reporter activity", "setting": "compound concentration: 10 uM", "value": "inactive: -1.89"}]}, {"smiles": "COc1c(OC[C@@H](O)CN2CCOCC2)ccc2c1N=C(NC(=O)c1cccnc1C)N1CCN=C21", "values": [{"measurement": "TEAD-luciferase reporter activity", "setting": "compound concentration: 200 nM", "value": "inactive: 0.209"}, {"measurement": "TEAD-luciferase reporter activity", "setting": "compound concentration: 10 uM", "value": "inactive: 0.313"}]}, {"smiles": "O=C(O)c1c[nH]c2cc(Cl)c(-c3ccc(C4(O)CCC4)cc3)cc12", "values": [{"measurement": "TEAD-luciferase reporter activity", "setting": "compound concentration: 200 nM", "value": "inactive: 1.07"}, {"measurement": "TEAD-luciferase reporter activity", "setting": "compound concentration: 2 uM", "value": "inactive: 0.751"}, {"measurement": "TEAD-luciferase reporter activity", "setting": "compound concentration: 10 uM", "value": "inactive: -1.48"}]}, {"smiles": "CNC(=O)C[C@@H](N)C(=O)N[C@@H](C(=O)N[C@@H]1C(=O)N2[C@@H]1SC(C)(C)[C@@H]2C(=O)O)c1ccc(O)cc1", "note": "[Aspoxicillin trihydrate]", "values": [{"measurement": "TEAD-luciferase reporter activity", "setting": "compound concentration: 2 uM", "value": "inactive: -0.623"}]}, {"smiles": "CNC(=O)C[C@@H](N)C(=O)N[C@@H](C(=O)N[C@@H]1C(=O)N2[C@@H]1SC(C)(C)[C@@H]2C(=O)O)c1ccc(O)cc1", "note": "[Aspoxicillin]", "values": [{"measurement": "TEAD-luciferase reporter activity", "setting": "compound concentration: 200 nM", "value": "inactive: -1.46"}, {"measurement": "TEAD-luciferase reporter activity", "setting": "compound concentration: 10 uM", "value": "inactive: 0.131"}]}, {"smiles": "CCOC(=O)C1=C(C)NC(C)=C(C(=O)OC)C1c1cccc(Cl)c1Cl", "note": "(stereo unspecified) [felodipine patch]", "values": [{"measurement": "TEAD-luciferase reporter activity", "setting": "compound concentration: 2 uM", "value": "inactive: -0.717"}]}, {"smiles": "CCOC(=O)C1=C(C)NC(C)=C(C(=O)OC)C1c1cccc(Cl)c1Cl", "note": "(stereo unspecified) [felodipine patch, Pierre Fabre]", "values": [{"measurement": "TEAD-luciferase reporter activity", "setting": "compound concentration: 200 nM", "value": "inactive: -2.2"}, {"measurement": "TEAD-luciferase reporter activity", "setting": "compound concentration: 10 uM", "value": "inactive: -1.28"}]}]}
